Results published in publication PMC9215249.
Results are given in words; binding and its absence hold for the method and conditions named. Binding seen in cells or lysates may run through a third protein. Some entries that bind do so weakly or less than the wild type. For some of these results: Tags and fused reporters may be left off the sequences shown.

Amino acid sequences for entries named in this document (tags omitted).
UniProt Q7Z434: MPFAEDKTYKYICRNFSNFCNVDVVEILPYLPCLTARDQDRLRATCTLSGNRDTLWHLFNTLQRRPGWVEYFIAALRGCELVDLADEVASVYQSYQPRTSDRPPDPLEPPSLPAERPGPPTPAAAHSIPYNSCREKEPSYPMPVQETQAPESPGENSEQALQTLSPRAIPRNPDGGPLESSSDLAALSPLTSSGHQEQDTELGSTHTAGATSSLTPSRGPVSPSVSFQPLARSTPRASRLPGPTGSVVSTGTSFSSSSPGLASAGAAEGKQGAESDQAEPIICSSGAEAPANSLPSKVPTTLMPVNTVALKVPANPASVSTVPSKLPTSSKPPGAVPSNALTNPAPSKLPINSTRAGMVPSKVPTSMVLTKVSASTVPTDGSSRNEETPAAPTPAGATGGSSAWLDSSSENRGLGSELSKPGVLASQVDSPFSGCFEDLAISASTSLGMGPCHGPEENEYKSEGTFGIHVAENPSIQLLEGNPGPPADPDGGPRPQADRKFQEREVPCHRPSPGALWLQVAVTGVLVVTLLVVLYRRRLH

B1: TBK1, endogenous (protein, UniProt Q9UHD2 1-729)
chain: MQSTSNHLWLLSDILGQGATANVFRGRHKKTGDLFAIKVFNNISFLRPVDVQMREFEVLKKLNHKNIVKLFAIEEETTTRHKVLIMEFCPCGSLYTVLEEPSNAYGLPESEFLIVLRDVVGGMNHLRENGIVHRDIKPGNIMRVIGEDGQSVYKLTDFGAARELEDDEQFVSLYGTEEYLHPDMYERAVLRKDHQKKYGATVDLWSIGVTFYHAATGSLPFRPFEGPRRNKEVMYKIITGKPSGAISGVQKAENGPIDWSGDMPVSCSLSRGLQVLLTPVLANILEADQEKCWGFDQFFAETSDILHRMVIHVFSLQQMTAHKIYIHSYNTATIFHELVYKQTKIISSNQELIYEGRRLVLEPGRLAQHFPKTTEENPIFVVSREPLNTIGLIYEKISLPKVHPRYDLDGDASMAKAITGVVCYACRIASTLLLYQELMRKGIRWLIELIKDDYNETVHKKTEVVITLDFCIRNIEKTVKVYEKLMKINLEAAELGEISDIHTKLLRLSSSQGTIETSLQDIDSRLSPGGSLADAWAHQEGTHPKDRNVEKLQVLLNCMTEIYYQFKKDKAERRLAYNEEQIHKFDKQKLYYHATKAMTHFTDECVKKYEAFLNKSEEWIRKMLHLRKQLLSLTNQCFDIEEEVSKYQEYTNELQETLPQKMFTASSGIKHTMTPIYPSSNTLVEMTLGMKKLKEEMEGVVKELAENNHILERFGSLTMDGGLRNVDCL
B2: Flag-STAT1 (protein, UniProt Q764M5 1-753)
chain: MSQWYELQQLDSKFLEQVHQLYDDSFPMEIRQYLAQWLENQDWEHAANDVSFATIRFHDLLSQLDDQYSRFSLENNFLLQHNIRKSKRNLQDNFQEDPIQMSMIICNCLKEERKILENAQRFNQTQSGNIQSTVMLDKHKELDSKVRNVKDKVMCIEHEIKTLEDLQDEYDFKCKTLQNREHDTNGVAKNDQKQEQMLLQKMYLMLDNKRKEVVHKIIELLNVTELTQKALINDELVEWKRRQQSACIGGPPNACLDQLQNWFTIVAESLQQVRQQLKKLEELEQKYTYEHDPITKNKQALWDRTFSLFQQLIQSSFVVERQPCMPTHPQRPLVLKTGVQFTVKLRLLVKLQELNYNLKVKVLFDKDVSERNTVKGFRKFNILGTHTKVMNMEESTNGSLAAEFRHLQLKEQKNAGARTNEGPLIVTEELHSLSFETQLCQPGLVIDLETTSLPVVVISNVSQLPSGWASILWYNMLVAEPRNLSFFLNPPCARWSQLSEVLSWQFSSVTKRGLNVDQLNMLGEKLLGPTAGPDGLIPWTRFCKENINDKNFPFWLWIESILELIKKHLLSLWNDGCIVGFISKERERALLKDQQPGTFLLRFSESCREGAITFTWVERSQNGGEPYFHAVEPYTKKELSAVTFPDIIRNYKVMAAENIPENPLKYLYPNIDKDHAFGKYYSRPKEAPEPMELDGPKGTGYIKTELISVSEVHPSRLQTTDNLLPMSPEEFDEVSRMVGPVEFDMVSMTRGRS

Experiments:
[1] = biological target: T1, annexin-A1 (ANXA1), endogenous (human (endogenous in HeLa and HEK293T)) (UniProt P04083); test: co-IP; endogenous proteins in HeLa cell lysates; IP with anti-ANXA1, anti-VISA or anti-TBK1 antibodies, immunoblot
T1 sequence: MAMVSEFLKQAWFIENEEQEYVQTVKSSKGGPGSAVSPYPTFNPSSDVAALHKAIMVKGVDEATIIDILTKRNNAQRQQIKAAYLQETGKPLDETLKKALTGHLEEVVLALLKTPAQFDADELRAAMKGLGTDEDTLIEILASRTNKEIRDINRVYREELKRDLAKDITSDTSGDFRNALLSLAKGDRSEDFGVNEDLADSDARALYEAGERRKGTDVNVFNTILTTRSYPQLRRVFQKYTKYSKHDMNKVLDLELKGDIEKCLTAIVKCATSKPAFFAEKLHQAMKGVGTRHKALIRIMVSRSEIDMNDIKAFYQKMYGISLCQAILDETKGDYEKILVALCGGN

[2] = biological target: T1, annexin-A1 (ANXA1), endogenous (human (endogenous in HeLa and HEK293T)); test: co-IP; endogenous proteins in HEK293T cell lysates; IP with anti-ANXA1 antibody
[3] = biological target: T2, myc-ANXA1 (porcine (cDNA from PK15 cells)) (UniProt P19619); test: co-IP
T2 sequence: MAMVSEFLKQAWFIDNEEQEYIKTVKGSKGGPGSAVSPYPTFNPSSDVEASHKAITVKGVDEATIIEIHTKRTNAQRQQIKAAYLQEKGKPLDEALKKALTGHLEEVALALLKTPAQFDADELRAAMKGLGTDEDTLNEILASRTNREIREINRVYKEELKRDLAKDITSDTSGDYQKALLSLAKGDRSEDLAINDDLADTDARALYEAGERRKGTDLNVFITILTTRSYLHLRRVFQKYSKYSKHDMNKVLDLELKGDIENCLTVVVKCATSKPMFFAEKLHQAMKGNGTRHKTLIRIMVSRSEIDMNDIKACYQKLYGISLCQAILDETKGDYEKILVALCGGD

| Molecule | binding [1] | other results |
| --- | --- | --- |
| VISA, endogenous (from UniProt Q7Z434 1-540) | binds | – |
| STAT1, endogenous (from UniProt P42224 1-750) | – | binding [2]: binds |
| B1 | binds | – |
| B2 | – | binding [3]: binds |
